From US20240108744A1 (priority 2022, published 2024)

Assay: general procedure: solution-phase peptide synthesis; dicyclohexylcarbodiimide / N-hydroxysuccinimide
Conditions: late stage modification step

Substance	step yield [%]
((2R,3R)-3-((S)-1-((3R,4S,5S)-4-((S)—N,3-dimethyl-2-((S)-3-methyl-2-(methyl(2-(methylthio)ethyl)amino)butanamido)butanamido)-3-methoxy-5-methylheptanoyl)pyrrolidin-2-yl)-3-methoxy-2-methylpropanoyl)-L-phenylalanine	46.9
(S)-2-((2R,3R)-3-((S)-1-((3R,4S,5S)-4-((S)-2-((S)-2-((2-mercaptoethyl)(methyl)amino)-3-methylbutanamido)-N,3-dimethylbutanamido)-3-methoxy-5-methylheptanoyl)pyrrolidin-2-yl)-3-methoxy-2-methylpropanamido)-3-phenylpropanoic acid	77.0
(S)-2-((2R,3R)-3-((S)-1-((3S,6S,14S,17S,20S, 21R)-3-amino-20-((S)-sec-butyl)-14,17-diisopropyl-21-methoxy-2,6,13,19-tetramethyl-4,7,15,18-tetraoxo-10-thia-5,8,13,16,19-pentaazatricosan-23-oyl)pyrrolidin-2-yl)-3-methoxy-2-methylpropanamido)-3-p	87.0
